# PMC5996148
# Where “and” joins values, the source holds several entries; their conditions need not be identical. Equal values may be shown once. This is one part of the list.
# What was measured:
# Assay in all cases: protein microarray (ProtoArray v5.0), streptavidin-Alexa Fluor 647
# Settings in all cases: 3'-biotin; 20 mM Tris (pH 7.5), 5 mM MgCl2, 100 mM KCl, 0.1% Tween-20, A/T-rich and random oligonucleotide blockers; temperature not stated; high values mean tight binding
# STXBP2 (human) = test system: STXBP2 (human)
# STYX (human) = test system: STYX (human)
# SULT1A3 (human) = test system: SULT1A3 (human)
# SULT1B1 (human) = test system: SULT1B1 (human)
# SULT1C2 (human) = test system: SULT1C2 (human)
# SULT1C4 (human) = test system: SULT1C4 (human)
# SULT2B1 (human) = test system: SULT2B1 (human)
# SURF4 (human) = test system: SURF4 (human)
# SURF5 (human) = test system: SURF5 (human)
# SUSD2 (human) = test system: SUSD2 (human)
# SUSD4 (human) = test system: SUSD4 (human)
# [1] = test system: SWI/SNF-related matrix-associated actin-dependent regulator of chromatin subfamily D member 2 (human)
# SYCE1 (human) = test system: SYCE1 (human)
# SYMPK (human) = test system: SYMPK (human)
# SYNGR2 (human) = test system: SYNGR2 (human)
# SYNGR4 (human) = test system: SYNGR4 (human)
# SYNJ2BP (human) = test system: SYNJ2BP (human)
# SYS1 (human) = test system: SYS1 (human)
# SYVN1 (human) = test system: SYVN1 (human)
# [2] = test system: Scavenger receptor cysteine-rich domain-containing protein LOC284297 (human)
sequence,measurement,setting,value
GGGAGGCTGAGGCAGG [G4-1 biotinylated (PQS2)],binding signal,STXBP2 (human),-0.319 z-score
same,binding signal,STYX (human),-0.321 z-score
same,binding signal,SULT1A3 (human),-0.333 z-score
same,binding signal,SULT1B1 (human),-0.344 z-score
same,binding signal,SULT1C2 (human),-0.342 z-score
same,binding signal,SULT1C4 (human),-0.337 z-score
same,binding signal,SULT2B1 (human),-0.355 z-score
same,binding signal,SURF4 (human),-0.343 z-score
same,binding signal,SURF5 (human),-0.324 z-score
same,binding signal,SUSD2 (human),-0.269 z-score
same,binding signal,SUSD4 (human),-0.347 z-score
same,binding signal,[1],-0.352 z-score
same,binding signal,SYCE1 (human),-0.35 z-score and -0.335 z-score
same,binding signal,SYMPK (human),-0.346 z-score
same,binding signal,SYNGR2 (human),-0.34 z-score
same,binding signal,SYNGR4 (human),-0.343 z-score
same,binding signal,SYNJ2BP (human),-0.324 z-score
same,binding signal,SYS1 (human),-0.291 z-score
same,binding signal,SYVN1 (human),-0.323 z-score
same,binding signal,[2],-0.362 z-score

# Another view of part of the listing above.
sequence	measurement	setting	value
GGGAGGCTGAGGCAGG [G4-1 biotinylated (PQS2)]	binding signal	SULT1A3 (human)	-0.333 z-score
same	binding signal	SULT1B1 (human)	-0.344 z-score
